Experimental data: patent US12128010B2, “Semifluorinated compounds and their compositions” (NOVALIQ GMBH, priority 2015, dated 2024)
The name of at least one read-out is uncertain.

Assay: DSC of mixtures with tetradecane (C14)
Format: physicochemical
Conditions: compared to CF3(CF2)5(CH2)7CH3; suggested from DSC; in words

CCCCCCC(C)C(F)(F)C(F)(F)C(F)(F)C(F)(F)C(F)(F)C(F)(F)F (stereo not shown) [CF3—(CF2)5—CH(CH3)—(CH2)5—CH3, 2-perfluorohexyloctane]
solubilizing capacity (tetradecane): stronger solubilizing capacity
